According to publication doi:10.1101/2021.11.24.469949:
Where two headings read alike, the source gives them in different places. These are yes or no findings as the source states them, for the method shown. In cells and extracts the contact can be indirect. Here binding means that the protein was enriched with, or labelled near, the bait; the list need not be complete. For some assays here: Sequences can lack the tags named with a protein.

Sequences of proteins named here, by UniProt entry; tags and fusion partners are left off.
UniProt Q94K07: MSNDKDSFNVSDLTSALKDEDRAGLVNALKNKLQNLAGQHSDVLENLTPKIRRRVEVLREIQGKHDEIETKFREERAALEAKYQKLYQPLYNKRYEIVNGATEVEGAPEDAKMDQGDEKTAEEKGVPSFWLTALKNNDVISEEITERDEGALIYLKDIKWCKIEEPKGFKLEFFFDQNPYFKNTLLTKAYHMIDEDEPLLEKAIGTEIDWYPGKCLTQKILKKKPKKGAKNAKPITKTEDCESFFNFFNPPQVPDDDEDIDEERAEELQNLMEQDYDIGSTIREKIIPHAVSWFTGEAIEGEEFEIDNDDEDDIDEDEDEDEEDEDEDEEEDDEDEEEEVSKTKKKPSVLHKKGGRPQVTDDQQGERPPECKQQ

How the values were obtained:
Experiment in all cases: affinity purification with mass spectrometry
[1] = biological target: T1, ZPR2-tdTomato-3xFLAG (Arabidopsis) (UniProt Q9LZX5)
T1 sequence: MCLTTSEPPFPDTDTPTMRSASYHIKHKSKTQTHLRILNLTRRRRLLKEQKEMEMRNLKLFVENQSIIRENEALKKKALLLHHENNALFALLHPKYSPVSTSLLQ

[2] = biological target: T2, ZPR3-tdTomato-3xFLAG (Arabidopsis) (UniProt Q9LXI8)
T2 sequence: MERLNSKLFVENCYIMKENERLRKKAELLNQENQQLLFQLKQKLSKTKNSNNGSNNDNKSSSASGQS

[3] = biological target: T1, ZPR2-tdTomato-3xFLAG (Arabidopsis); remark: listed apart in the source
[4] = biological target: ZPR1-tdTomato-3xFLAG (Arabidopsis)
[5] = biological target: T3, ZPR4-tdTomato-3xFLAG (Arabidopsis) (UniProt Q56WL5)
T3 sequence: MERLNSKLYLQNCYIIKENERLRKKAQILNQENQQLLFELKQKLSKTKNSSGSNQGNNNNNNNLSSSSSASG

[6] = biological target: T4, 3xFLAG tagged CNA (Arabidopsis) (UniProt Q9ZU11)
T4 sequence: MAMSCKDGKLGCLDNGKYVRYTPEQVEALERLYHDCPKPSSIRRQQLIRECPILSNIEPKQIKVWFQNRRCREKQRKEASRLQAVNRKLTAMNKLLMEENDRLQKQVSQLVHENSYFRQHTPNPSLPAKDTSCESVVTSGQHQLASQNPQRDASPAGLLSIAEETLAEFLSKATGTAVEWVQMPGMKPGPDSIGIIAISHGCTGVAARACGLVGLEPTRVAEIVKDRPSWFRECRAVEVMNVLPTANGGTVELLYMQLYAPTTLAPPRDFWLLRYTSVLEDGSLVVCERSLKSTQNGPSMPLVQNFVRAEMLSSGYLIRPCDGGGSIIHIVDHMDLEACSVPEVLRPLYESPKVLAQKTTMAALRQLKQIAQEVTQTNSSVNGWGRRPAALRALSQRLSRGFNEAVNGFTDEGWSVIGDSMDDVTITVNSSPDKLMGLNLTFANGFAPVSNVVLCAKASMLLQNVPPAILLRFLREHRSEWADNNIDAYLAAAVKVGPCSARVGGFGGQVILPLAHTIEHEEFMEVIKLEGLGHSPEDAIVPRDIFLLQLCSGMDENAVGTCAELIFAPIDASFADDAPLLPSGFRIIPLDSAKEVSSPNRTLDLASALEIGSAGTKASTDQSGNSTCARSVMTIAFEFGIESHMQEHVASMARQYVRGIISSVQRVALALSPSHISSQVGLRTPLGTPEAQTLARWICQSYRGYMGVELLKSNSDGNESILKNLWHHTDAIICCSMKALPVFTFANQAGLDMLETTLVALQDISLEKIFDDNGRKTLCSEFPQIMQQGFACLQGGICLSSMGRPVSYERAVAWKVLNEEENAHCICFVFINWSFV

[7] = biological target: T5, 3xFLAG tagged REV (Arabidopsis) (UniProt Q9SE43)
T5 sequence: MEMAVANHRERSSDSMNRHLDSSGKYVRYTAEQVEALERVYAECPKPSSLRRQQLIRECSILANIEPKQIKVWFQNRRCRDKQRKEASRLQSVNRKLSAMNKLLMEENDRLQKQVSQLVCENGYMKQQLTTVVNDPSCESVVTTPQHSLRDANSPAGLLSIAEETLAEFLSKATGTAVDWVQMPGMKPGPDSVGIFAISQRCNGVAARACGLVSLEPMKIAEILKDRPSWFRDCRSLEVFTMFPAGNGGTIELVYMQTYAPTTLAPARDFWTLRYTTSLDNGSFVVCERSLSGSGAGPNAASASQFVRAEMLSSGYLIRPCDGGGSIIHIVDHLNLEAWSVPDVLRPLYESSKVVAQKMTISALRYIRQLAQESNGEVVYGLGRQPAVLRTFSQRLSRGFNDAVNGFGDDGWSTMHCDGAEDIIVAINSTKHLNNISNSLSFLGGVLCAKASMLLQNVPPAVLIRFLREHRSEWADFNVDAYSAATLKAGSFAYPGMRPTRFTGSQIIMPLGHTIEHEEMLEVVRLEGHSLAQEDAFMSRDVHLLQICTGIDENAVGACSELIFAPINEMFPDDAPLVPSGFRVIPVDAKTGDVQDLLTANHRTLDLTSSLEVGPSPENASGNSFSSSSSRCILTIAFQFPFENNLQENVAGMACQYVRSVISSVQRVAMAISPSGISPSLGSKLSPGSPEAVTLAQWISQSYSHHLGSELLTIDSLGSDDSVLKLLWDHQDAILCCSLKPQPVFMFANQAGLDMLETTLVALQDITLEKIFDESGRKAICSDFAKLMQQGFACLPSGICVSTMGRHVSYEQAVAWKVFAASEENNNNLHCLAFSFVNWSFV

[8] = biological target: T6, 3xFLAG tagged PHB (Arabidopsis) (UniProt O04291)
T6 sequence: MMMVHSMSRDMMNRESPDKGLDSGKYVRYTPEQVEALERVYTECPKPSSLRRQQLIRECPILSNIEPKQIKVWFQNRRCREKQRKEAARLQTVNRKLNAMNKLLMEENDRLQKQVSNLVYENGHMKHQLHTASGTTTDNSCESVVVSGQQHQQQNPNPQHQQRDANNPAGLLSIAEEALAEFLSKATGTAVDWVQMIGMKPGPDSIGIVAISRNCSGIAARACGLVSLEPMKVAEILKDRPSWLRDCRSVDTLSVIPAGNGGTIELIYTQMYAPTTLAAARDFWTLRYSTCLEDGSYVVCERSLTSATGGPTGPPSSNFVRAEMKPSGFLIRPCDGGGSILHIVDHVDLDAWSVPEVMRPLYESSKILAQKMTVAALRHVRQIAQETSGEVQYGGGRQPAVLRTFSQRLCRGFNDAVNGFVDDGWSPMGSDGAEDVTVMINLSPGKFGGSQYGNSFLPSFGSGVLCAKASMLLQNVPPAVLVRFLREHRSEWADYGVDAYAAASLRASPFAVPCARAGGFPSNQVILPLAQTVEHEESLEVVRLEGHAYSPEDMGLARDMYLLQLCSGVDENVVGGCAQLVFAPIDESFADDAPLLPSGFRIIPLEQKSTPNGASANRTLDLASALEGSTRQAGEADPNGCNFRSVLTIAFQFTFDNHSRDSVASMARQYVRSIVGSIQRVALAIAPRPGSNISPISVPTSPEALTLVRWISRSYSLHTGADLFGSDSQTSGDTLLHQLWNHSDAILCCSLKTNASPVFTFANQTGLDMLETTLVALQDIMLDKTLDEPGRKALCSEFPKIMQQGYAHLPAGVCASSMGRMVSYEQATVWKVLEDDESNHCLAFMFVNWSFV

Measured: binding

AT3G10690.1
binds: [1]

NAP1;3 (AT5G56950.1) (from UniProt Q94K07 1-374)
binds: [1]

B1: PHABULOSA/ATHB14 (PHB) (protein, UniProt O04291 1-852)
chain: T6 sequence
binds: [2] | [3] | [4] | [5] | [6] | [7]

B2: REVOLUTA/IFL1 (REV) (protein, UniProt Q9SE43 1-842)
chain: T5 sequence
binds: [2] | [3] | [8] | [4] | [5] | [6]
